The test in a line: qHTS Assay for Lipid Storage Modulators in Drosophila S3 Cells.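 For cell number change: cells counted by Cell Tracker Red CMTPX staining in the red channel.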 To be noted: BODIPY lipid droplet fluorescence, 18-24 h; for cell number change: measured here: cell count max response, cells fed with added oleic acid. In outline: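 Drosophila S3 cells loaded with oleic acid (400 uM, as added) and compounds at several concentrations; lipid droplets imaged by 488-nm laser-scanning cytometry, 500–530 nm intensity and object ratio to cell channel. Percent activity normalized to 20 uM Triacsin C.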

Where [1] appears, read: measured here: cell number channel AC50, cells fed with added oleic acid.
Where [2] appears, read: measured here: lipid fluorescence (Fed channel) AC50, cells fed with added oleic acid.

This is one part of the list. Shown are side measurements of this screen, not its main read-out; they come without a call. Most of these compounds were active or inconclusive in the main read-out, so they are no random draw. The note in brackets gives the kind of curve behind each potency; many fits are weak.

As for `Cc1ccc(NC(=S)N2CCN(C(=O)c3ccccc3)CC2)c(C)c1`, the cell number change is -25.6%. Moreover, under setting [1], the AC50 is 580 nM [falling, partial curve, poor fit]. In addition, under setting [2], the AC50 was 1640 nM [falling, full curve, poor fit].
Take `Cc1ccnc(NC(=O)c2ccc(COc3ccc(Cl)cc3)o2)c1`: the cell number change is -4.63%.
With `CN(CC(=O)O/N=C(\N)c1ccc(Br)cc1)S(=O)(=O)c1ccccc1`, the cell number change was 35.5%. For the same molecule, under setting [1], the AC50 is 355 nM [rising, full curve, poor fit]. Under setting [2], the AC50 is 112 nM [rising, full curve, poor fit].
Take `S=C(Nc1ccccc1)N1CCN(C(=S)c2ccccc2)CC1`: the cell number change was 16.5%. For the same molecule, the AC50 under setting [2] is 14100 nM [rising, single point].
As to `O=C(c1ccccc1Cc1ccccc1)N1CCN(S(=O)(=O)c2ccccc2Br)CC1`, the cell number change is 31.4%. Further, the AC50 under setting [1] was 13000 nM [rising, single point].
As to `O=C(NCC1COc2ccccc2O1)C1CCC(CNc2c(N3CCCCC3)c(=O)c2=O)CC1` (stereo not drawn), the cell number change is -3.85%.
`CCOC(=O)c1c(NC(=O)Cn2ccsc2=N)sc(C)c1C`: the cell number change was found to be 31.6%. Also, the AC50 under setting [1] is 184 nM [rising, full curve, poor fit]. For the same molecule, the AC50 under setting [2] was 6510 nM [rising, full curve].
Regarding `Cc1ccc(C)c(Cn2nnc3c(=O)[nH]c(C4CCCN(C(=O)C5CCCCC5)C4)nc32)c1` (stereo not drawn), the cell number change is -49.3%. Moreover, under setting [1], the AC50 is 29100 nM [falling, single point]. Besides, under setting [2], the AC50 is 731 nM [rising, full curve].
Take `CCc1nc(C)cc(N)c1OCc1ccccc1`: the cell number change was -10.7%. For the same molecule, under setting [1], the AC50 is 4.61 nM [falling, full curve, poor fit].
Take `CCOC(=O)N1CCN(C(=O)Cn2nc(C)c3sc4ccccc4c3c2=O)CC1`: the cell number change is -5.87%. In addition, the AC50 under setting [2] is 29100 nM [rising, single point].
Consider `COCC(=O)Nc1nnc(-c2ccc(C(C)(C)C)cc2)s1`, for which the cell number change worked out at 7.6%. For the same molecule, the AC50 under setting [1] is 731 nM [falling, full curve]. The AC50 under setting [2] is 651 nM [falling, full curve].
`O=C(Nn1cnnc1)c1cc(-c2cccc(Br)c2)nc2ccccc12`: the cell number change came to 26.3%. The half-maximal activity concentration (AC50) under setting [2] is 8200 nM [rising, partial curve, poor fit].
As for `CC(C(=O)Nc1ncc2c(n1)CC(C)(C)CC2=O)N1C(=O)c2ccccc2C1=O` (stereo not drawn), the cell number change was found to be 2.15%. The AC50 under setting [2] was 73.1 nM [falling, full curve, poor fit].
For `CSc1ncc(Cl)c(C(=O)Nc2cc(C)ccc2C)n1`, the cell number change is 31.1%. Moreover, the concentration at half-maximal activity (AC50) under setting [2] is 4110 nM [rising, partial curve, poor fit].
For `CCC(=O)Nc1nc2ccc3sc(C)nc3c2s1`, the cell number change was -24.6%. For the same molecule, the half-maximal activity concentration (AC50) under setting [2] is 164 nM [falling, full curve, poor fit].
In the case of `CCOc1ccc(CCNC(=O)C2CCCN(c3nn4c(=O)cc(C)nc4s3)C2)cc1OCC` (stereo not drawn), the cell number change is 4.26%. The AC50 under setting [2] is 18400 nM [rising, single point].
With `C/C(=N\N=c1/sc2ccccc2n1C)c1ccc(N2CCOCC2)cc1`, the AC50 is 2910 nM [rising, single point] under setting [1] and 6510 nM [rising, single point] under setting [2].
For the molecule `CCOC(=O)Cc1csc(NC(=S)NC(=O)c2ccc([N+](=O)[O-])cc2)n1`, the cell number change is 34%. Moreover, the AC50 under setting [1] is 11600 nM [rising, partial curve].
Regarding `O=C(Nc1ccccn1)[C@@H]1CCC(=O)N1C(=O)OCc1ccccc1`, the cell number change turned out to be 10.5%. Besides, under setting [2], the AC50 was 29100 nM [rising, single point].
Consider `COc1ccc(CN2CCN(C(=O)c3ccc(F)cc3)CC2)c(OC)c1`, for which the cell number change turned out to be 8.8%. In addition, the AC50 under setting [2] was 130 nM [falling, full curve, poor fit].
In the case of `COc1cccc(CNn2c(-c3cccc(C)c3)nc3ccccc3c2=O)c1`, the half-maximal activity concentration (AC50) by setting is: under setting [1], 651 nM [rising, full curve]; under setting [2], 10300 nM [rising, partial curve].
With `CCCS(=O)(=O)N1CCCC(C(=O)NCCN(Cc2ccccc2)C(C)C)C1` (stereo not drawn), the cell number change was found to be 23.3%. The AC50 under setting [2] is 4610 nM [rising, full curve, poor fit].
On to `Cc1csc(NC(=O)CN2C(=O)c3ccccc3C2=O)c1C(N)=O`, for which the cell number change stood at 7.73%. The AC50 under setting [1] was 731 nM [rising, single point]. In addition, under setting [2], the concentration at half-maximal activity (AC50) was 731 nM [rising, single point].
With `COc1ccc(-c2oc3ncnc(NCCCO)c3c2-c2ccc(OC)cc2)cc1`, the cell number change is -45.9%. In addition, under setting [1], the AC50 was 2310 nM [falling, partial curve].
As for `CCOP(=O)(c1ccccc1)C1(C#N)CCCC1` (stereo not drawn), the cell number change worked out at 5.76%.
In the case of `O=C(NNC(=O)C1CCC1)c1cccc(Cl)c1`, the cell number change is -12.7%. The AC50 under setting [2] is 184 nM [falling, full curve, poor fit].
Turning to `O=C(NC(Cc1ccccc1)C(=O)Oc1ccc2c(C(F)(F)F)cc(=O)oc2c1)OCc1ccccc1` (stereo not drawn), the cell number change was -2.9%. In addition, the AC50 under setting [1] is 6510 nM [rising, single point]. In addition, the AC50 under setting [2] was 29100 nM [rising, single point].
Consider `C=CCn1ccc2c([N+](=O)[O-])cccc2c1=O`, for which, under setting [1], the AC50 is 820 nM [rising, single point].
Take `O=C(COC(=O)CCCN1C(=O)c2ccccc2C1=O)Nc1ncc(Cl)cc1Cl`: the cell number change is 2.94%.
Regarding `CC(=C\c1ccco1)/C=C(\C#N)C(=O)NCCc1c[nH]c2ccccc12`, the cell number change was -7.04%. Further, the AC50 under setting [2] is 7310 nM [falling, partial curve].
For `CC(C)(C)c1ccc(NC(=O)C2=CC=CN3CCS(=O)(=O)N=C23)cc1`, the cell number change is 0.137%. Further, the AC50 under setting [1] was 11.6 nM [rising, full curve, poor fit]. Also, the half-maximal activity concentration (AC50) under setting [2] was 4.11 nM [rising, full curve, poor fit].
`Cc1cccc(Oc2ccc(S(=O)(=O)N3CCCCC3)cc2NC(=O)C2=COCCO2)c1`: the cell number change is -11.4%.
With `Cc1nn(C)cc1C1C(C#N)=C(N)N(c2ccc(F)c([N+](=O)[O-])c2)C2=C1C(=O)CCC2` (stereo not drawn), the cell number change is 11.7%. In addition, under setting [2], the AC50 was 1840 nM [rising, partial curve, poor fit].
For the molecule `O=C(O)CN1C(=O)/C(=C\c2cccc(OCc3ccc(Cl)cc3Cl)c2)SC1=S`, the cell number change was -6.61%. For the same molecule, the AC50 under setting [2] is 116 nM [rising, full curve, poor fit].
On to `Cc1c(Br)cc(C(=O)N2CCCC2)c(C)c1C`, for which the cell number change was -68.8%. The AC50 under setting [1] is 23100 nM [falling, partial curve, poor fit]. For the same molecule, under setting [2], the AC50 was 18400 nM [falling, partial curve].
